From patent publication US11104648B2, “Pyrazole derivative” (Zhejiang Research Institute of Chemical Industry Co., Ltd., priority 2018, dated 2021)
Some results were stated once for a whole list of compounds, not compound by compound.

Key:
Type in all cases: in vivo
[1] = system: adult Tetranychus cinnabarinus; assay: Activity assay of adult Tetranychus cinnabarinus (whole-plant spray on bean seedlings); settings: concentration 2.5 mg/L; 48 h
Procedure, shortened: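 Bean seedlings at two-true-leaf stage, infested with adult mites and base count taken, sprayed whole-plant with compound in DMF (≤10%) diluted in 1‰ Tween 80. Three replicates per treatment kept in standard observation room. Surviving mites counted at 48 h to give death rate.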

[2] = system: Tetranychus cinnabarinus Nymphs; assay: Activity assay of Tetranychus cinnabarinus nymphs (spray on broad bean leaves); settings: concentration 2.5 mg/L; 48 h
Procedure, shortened: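 Compound in DMF (≤10%) diluted in 1‰ Tween 80 water was sprayed onto broad bean leaves carrying nymphs hatched from eggs laid by female adults over 24 h. Kept at 26±2° C., 70%–80% humidity, 16 h light; mortality (no response to touch) assessed after 48 h, three replicates with blank control.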

[3] = system: Eggs of Tetranychus Cinnabarinus; assay: Activity assay of eggs of Tetranychus cinnabarinus (spray method, ovicidal); settings: concentration 5 mg/L, non-incubated eggs counted as dead
Procedure, shortened: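 Female mites laid eggs on broad bean leaves for 24 h, adults removed, eggs sprayed with compound in DMF (≤10%)/1‰ Tween 80. Held at 26±2° C, 70–80% humidity, 16 h light; unhatched eggs counted dead once blank control hatched. Three replicates.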

Compound	adult mite-killing activity [1]	nymph-killing activity [2]	ovicidal activity [3]
Cc1nn(C)c(/C(OCOC(=O)OCC(C)C)=C(\C#N)c2ccc(C(C)(C)C)cc2)c1C [Compound 841]	≥ 90%	≥ 95%	≥ 90%
Cc1nn(C)c(/C(OCOC(=O)OC(C)C)=C(\C#N)c2ccc(C(C)(C)C)cc2)c1C [Compound 838]	≥ 90%	≥ 95%	≥ 90%
COC(=O)OC(C)O/C(=C(/C#N)c1ccc(C(C)(C)C)cc1)c1c(C)c(C)nn1C (racemic) [Compound 867]	≥ 90%	≥ 95%	≥ 90%
CCn1nc(C)c(Cl)c1/C(OCOC(=O)OCC(=O)OC)=C(\C#N)c1ccc(C(C)(C)C)cc1 [Compound 765]	≥ 90%	≥ 95%	≥ 90%
CCOCCOC(=O)OCO/C(=C(/C#N)c1ccc(C(C)(C)C)cc1)c1c(C)c(C)nn1C [Compound 853]	≥ 90%	≥ 95%	≥ 90%
CCn1nc(C)cc1/C(OC(C)OC(C)=O)=C(/C#N)c1ccc(C(C)(C)C)cc1 (stereo not drawn) [Compound 1318]	≥ 90%	≥ 95%	≥ 90%
COCCOC(=O)OC(C)O/C(=C(/C#N)c1ccc(C(C)(C)C)cc1)c1c(Cl)c(C)nn1C (racemic) [Compound 692]	≥ 90%	≥ 95%	≥ 90%
CCSC(=O)OCO/C(=C(/C#N)c1ccc(C(C)(C)C)cc1)c1c(Cl)c(C)nn1CC [Compound 768]	≥ 90%	≥ 95%	≥ 90%
C=CCOC(=O)OC(C)O/C(=C(/C#N)c1ccc(C(C)(C)C)cc1)c1c(Cl)c(C)nn1CC (racemic) [Compound 794]	≥ 90%	≥ 95%	≥ 90%
CCn1nc(C)c(Cl)c1/C(OCOC(=O)OC(C)C)=C(\C#N)c1ccc(C(C)(C)C)cc1 [Compound 742]	≥ 90%	≥ 95%	≥ 90%
CCC(OC(=O)C(C)C)O/C(=C(/C#N)c1ccc(C(C)(C)C)cc1)c1cc(C)nn1C (racemic) [Compound 54]	≥ 90%	≥ 95%	≥ 90%
COC(=O)OCO/C(=C(/C#N)c1ccc(C(C)(C)C)cc1)c1c(C)c(C)nn1C [Compound 835]	≥ 90%	≥ 95%	≥ 90%
CCn1nc(C)c(C)c1/C(OCOC(=O)OCCOC)=C(\C#N)c1ccc(C(C)(C)C)cc1 [Compound 948]	≥ 90%	≥ 95%	≥ 90%
Cc1nn(C)c(/C(OC(C)OC(=O)C(C)(C)C)=C(\C#N)c2ccc(C(C)(C)C)cc2)c1Cl (racemic) [Compound 105]	≥ 90%	≥ 95%	≥ 90%
Cc1nn(C)c(/C(OC(C)OC(=O)OCC(C)C)=C(\C#N)c2ccc(C(C)(C)C)cc2)c1Cl (racemic) [Compound 681]	≥ 90%	≥ 95%	≥ 90%
CCCCC(=O)OC(C)O/C(=C(\C#N)c1ccc(C(C)(C)C)cc1)c1cc(C)nn1CC (stereo not drawn) [Compound 1323]	≥ 90%	≥ 95%	≥ 90%
CCOC(=O)OCO/C(=C(/C#N)c1ccc(C(C)(C)C)cc1)c1c(Cl)c(C)nn1CC [Compound 740]	≥ 90%	≥ 95%	≥ 90%
Cc1nn(C)c(/C(OCOC(=O)OC(C)C)=C(\C#N)c2ccc(C(C)(C)C)cc2)c1Cl [Compound 646]	≥ 90%	≥ 95%	≥ 90%
CSCCOC(=O)OCO/C(=C(/C#N)c1ccc(C(C)(C)C)cc1)c1c(C)c(C)nn1C [Compound 855]	≥ 90%	≥ 95%	≥ 90%
Cc1nn(C)c(/C(OCOC(=O)OCCCl)=C(\C#N)c2ccc(C(C)(C)C)cc2)c1C [Compound 846]	≥ 90%	≥ 95%	≥ 90%

Compound	adult mite-killing activity [1]	nymph-killing activity [2]	ovicidal activity [3]
CCOC(=O)COC(=O)OC(C)O/C(=C(/C#N)c1ccc(C(C)(C)C)cc1)c1cc(C)nn1CC (racemic) [Compound 606]	≥ 90%	≥ 95%	≥ 90%
CCC(OC(=O)C1CC1)O/C(=C(/C#N)c1ccc(C(C)(C)C)cc1)c1cc(C)nn1C (racemic) [Compound 59]	≥ 90%	≥ 95%	≥ 90%
CCn1nc(C)c(Cl)c1/C(OCOC(=O)OCCSC)=C(\C#N)c1ccc(C(C)(C)C)cc1 [Compound 759]	≥ 90%	≥ 95%	≥ 90%
COC(=O)CSC(=O)OC(C)O/C(=C(/C#N)c1ccc(C(C)(C)C)cc1)c1c(C)c(C)nn1C (racemic) [Compound 897]	≥ 90%	≥ 95%	≥ 90%
CCCCCOC(=O)OC(C)O/C(=C(/C#N)c1ccc(C(C)(C)C)cc1)c1c(C)c(C)nn1CC (stereo not drawn) [Compound 972]	≥ 90%	≥ 95%	≥ 90%
CCSC(=O)OCO/C(=C(/C#N)c1ccc(C(C)(C)C)cc1)c1c(C)c(C)nn1C [Compound 864]	≥ 90%	≥ 95%	≥ 90%
CCC(OC(=O)C(C)(C)C)O/C(=C(/C#N)c1ccc(C(C)(C)C)cc1)c1cc(C)nn1C (racemic) [Compound 55]	≥ 90%	≥ 95%	≥ 90%
CCn1nc(C)c(Cl)c1/C(OCOC(=O)OCCCl)=C(\C#N)c1ccc(C(C)(C)C)cc1 [Compound 750]	≥ 90%	≥ 95%	≥ 90%
COC(=O)CSC(=O)OC(C)O/C(=C(/C#N)c1ccc(C(C)(C)C)cc1)c1c(Cl)c(C)nn1C (racemic) [Compound 705]	≥ 90%	≥ 95%	≥ 90%
C=CCOC(=O)OCO/C(=C(/C#N)c1ccc(C(C)(C)C)cc1)c1c(C)c(C)nn1C [Compound 858]	≥ 90%	≥ 95%	≥ 90%
CCC(OC(=O)c1ccccc1)O/C(=C(/C#N)c1ccc(C(C)(C)C)cc1)c1cc(C)nn1C (racemic) [Compound 64]	≥ 90%	≥ 95%	≥ 90%
Cc1nn(C)c(/C(OCOC(=O)OCCCl)=C(\C#N)c2ccc(C(C)(C)C)cc2)c1Cl [Compound 654]	≥ 90%	≥ 95%	≥ 90%
CCCCCOC(=O)OCO/C(=C(/C#N)c1ccc(C(C)(C)C)cc1)c1c(Cl)c(C)nn1C [Compound 652]	≥ 90%	≥ 95%	≥ 90%
CCn1nc(C)c(Cl)c1/C(OC(C)OC(=O)OCCSC)=C(\C#N)c1ccc(C(C)(C)C)cc1 (racemic) [Compound 791]	≥ 90%	≥ 95%	≥ 90%
CCC(OC(=O)C1CCCCC1)O/C(=C(/C#N)c1ccc(C(C)(C)C)cc1)c1cc(C)nn1C (racemic) [Compound 61]	≥ 90%	≥ 95%	≥ 90%
C=CCOC(=O)OC(C)O/C(=C(/C#N)c1ccc(C(C)(C)C)cc1)c1c(Cl)c(C)nn1C (racemic) [Compound 698]	≥ 90%	≥ 95%	≥ 90%
CCCCOC(=O)OC(C)O/C(=C(/C#N)c1ccc(C(C)(C)C)cc1)c1c(Cl)c(C)nn1CC (racemic) [Compound 776]	≥ 90%	≥ 95%	≥ 90%
Cc1nn(C)c(/C(OC(C)OC(=O)OCCCl)=C(\C#N)c2ccc(C(C)(C)C)cc2)c1C (racemic) [Compound 878]	≥ 90%	≥ 95%	≥ 90%
CCOCC(=O)OC(CC)O/C(=C(/C#N)c1ccc(C(C)(C)C)cc1)c1cc(C)nn1C (racemic) [Compound 68]	≥ 90%	≥ 95%	≥ 90%
Cc1nn(C)c(/C(OCOC(=O)OCC(C)C)=C(\C#N)c2ccc(C(C)(C)C)cc2)c1Cl [Compound 649]	≥ 90%	≥ 95%	≥ 90%
